The exact form of at least one protein or probe is not confirmed. At least one verdict was read from the data and is not stated in words by the source.
Target: Max bHLH-LZ (p21 isoform) (UniProt P61244)
Test: EMSA
Conditions: Max only at 2 uM, 6-fold excess unlabeled non-specific competitor

Protein sequences, listed by entry. Tags and fused reporters are not part of them. Lines headed by an entry give the natural chain unless they say otherwise; changes in a name come on top.
UniProt P61244: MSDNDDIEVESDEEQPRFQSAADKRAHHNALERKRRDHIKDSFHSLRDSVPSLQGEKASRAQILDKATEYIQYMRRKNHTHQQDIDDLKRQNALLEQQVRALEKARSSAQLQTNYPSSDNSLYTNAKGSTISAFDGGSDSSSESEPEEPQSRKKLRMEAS

“GCGCGGGCACGTGGGCCGGGG (double strand) [CACGTG E-box probe]”: binds.
